Test results published in US20220087962A1, “COMPOSITIONS AND METHODS FOR TREATING AGE-RELATED DISEASES OR CONDITIONS” (Arizona Board of Regents on Behalf of the University of …, priority 2019, published 2022).
Entries after “also recorded” stand apart in the source; their conditions may differ.

Assay: Direct interaction of 3HAA with H2O2 in vitro
Conditions: 3HAA media for oxidative stress assays
Text: Superoxide dismutases degrade cellular superoxide to oxygen and H2O2.

For Nc1c(O)cccc1C(=O)O [3HAA, 3-hydroxyanthranilic acid], the “red coloration of 3HAA media after addition of H2O2” value was “substantially diminished the red coloration; also recorded: H2O2 visibly reduces 3HAA in media”.
